From paper PMC8103281
No constants are given. Whether binding was seen depends on the method and setting.

By UniProt entry, the sequences of proteins in these tests, tags left out.
UniProt P26447: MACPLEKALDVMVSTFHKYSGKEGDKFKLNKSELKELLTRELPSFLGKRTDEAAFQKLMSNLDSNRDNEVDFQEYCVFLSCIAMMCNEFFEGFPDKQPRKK

Target: GST-HMG20A wild-type (2–347)-His6 (human) (UniProt Q9NP66)
Experiment: condition: 15 µg with 45 µg GST-HMG20A-His6 in 500 µL; pull-down; GST-HMG20A-His6 (45 µg) incubated with S100 proteins or calmodulin (15 µg) in 500 µL 150 mM NaCl, 20 mM Tris-HCl pH 7.5, 0.05% Tween 20, with 2 mM CaCl2 or 2 mM EGTA, 1 h room temperature; glutathione-sepharose; Coomassie staining; both purified

Row | binding | Molecule
1 | no binding | S100A4 (from UniProt P26447 1-101)
2 | no binding | S100A12 (protein, UniProt P80511 1-92) MTKLEEHLEGIVNIFHQYSVRKGHFDTLSKGELKQLLTKELANTIKNIKDKAVIDEIFQGLDANQDEQVDFQEFISLVAIALKAAHYHTHKE
3 | no binding | S100A11 (protein, UniProt P31949 1-105) MAKISSPTETERCIESLIAVFQKYAGKDGYNYTLSKTEFLSFMNTELAAFTKNQKDPGVLDRMMKKLDTNSDGQLDFSEFLNLIGGLAMACHDSFLKAVPSQKRT
